# In US20250387270A1, “DEVICES AND METHODS FOR WOUND TREATMENT” (APPLIED TISSUE TECHNOLOGIES LLC, priority 2016, published 2025):
# At least one compound was matched to its structure with a doubt left.
# Test: Stability of antibiotic drug activity in 0.5% (agarose) hydrogel over time
# Assay type: physicochemical
# Conditions: antibiotic in 0.5% (agarose) hydrogel, compare with original concentration
# Source text: According to Table 1, gel-therapeutic agent preparations comprising an antibiotic and a 0.5% (agarose) hydrogel may be stable for up to one week. Drugs dissolve passively into the gel and stay stable over time. In some embodiments, the gel-therapeutic agent preparation may further comprise saline. The gel may be biocompatible, meaning that it is structurally similar to the extracellular matrix in tissues. The gel may be flowable, allowing either for, for example, casting into a mold or injection via needle through a port. The loading of the […] agent preparation in the device may allow consistent and uniform contact with the skin even with patient movement, maintaining continuous delivery of the therapeutic agent to the underlying tissue. The gel-therapeutic agent preparation may prevent loss of the therapeutic agent in the event of a minor leak in the adhesive of the device.
compound,measurement,setting,value
CN(C)c1ccc(O)c2c1C[C@H]1C[C@H]3[C@H](N(C)C)C(O)=C(C(N)=O)C(=O)[C@@]3(O)C(O)=C1C2=O [Minocycline],"Drug activity, 3 days",3 days,8.86 µg/mL
same,"Drug activity, 7 days",7 days,8.53 µg/mL
